Experimental data taken from the supplement of paper PMC6411743.
± gives the standard deviation of the averaged measurements. The list shows a part of the results, in another mix than the full data.

The chains behind the UniProt entries cited, without tags or fusion partners. Where a name states a change or a piece, a line headed by the entry shows the natural chain unless it says otherwise.
UniProt Q9UKL6: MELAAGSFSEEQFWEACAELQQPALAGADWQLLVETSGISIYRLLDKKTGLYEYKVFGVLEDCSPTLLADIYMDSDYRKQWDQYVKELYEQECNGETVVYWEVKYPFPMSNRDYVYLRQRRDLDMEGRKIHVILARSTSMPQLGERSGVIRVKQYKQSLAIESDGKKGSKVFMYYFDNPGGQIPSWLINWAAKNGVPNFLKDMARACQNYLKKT
UniProt Q9UN36: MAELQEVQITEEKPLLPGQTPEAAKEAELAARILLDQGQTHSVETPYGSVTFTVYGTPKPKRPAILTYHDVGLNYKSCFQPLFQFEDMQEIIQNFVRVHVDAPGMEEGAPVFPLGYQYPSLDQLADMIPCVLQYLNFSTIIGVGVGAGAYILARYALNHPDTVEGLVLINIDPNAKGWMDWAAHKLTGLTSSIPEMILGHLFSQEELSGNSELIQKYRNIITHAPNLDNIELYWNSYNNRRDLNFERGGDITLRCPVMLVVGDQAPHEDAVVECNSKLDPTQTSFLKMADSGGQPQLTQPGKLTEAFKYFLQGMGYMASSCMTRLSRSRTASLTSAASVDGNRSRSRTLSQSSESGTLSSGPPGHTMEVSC
UniProt Q9Y244: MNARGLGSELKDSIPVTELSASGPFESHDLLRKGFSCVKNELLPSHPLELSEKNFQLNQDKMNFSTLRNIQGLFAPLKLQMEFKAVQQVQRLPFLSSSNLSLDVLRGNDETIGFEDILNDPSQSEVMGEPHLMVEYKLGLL
UniProt Q9ULJ3: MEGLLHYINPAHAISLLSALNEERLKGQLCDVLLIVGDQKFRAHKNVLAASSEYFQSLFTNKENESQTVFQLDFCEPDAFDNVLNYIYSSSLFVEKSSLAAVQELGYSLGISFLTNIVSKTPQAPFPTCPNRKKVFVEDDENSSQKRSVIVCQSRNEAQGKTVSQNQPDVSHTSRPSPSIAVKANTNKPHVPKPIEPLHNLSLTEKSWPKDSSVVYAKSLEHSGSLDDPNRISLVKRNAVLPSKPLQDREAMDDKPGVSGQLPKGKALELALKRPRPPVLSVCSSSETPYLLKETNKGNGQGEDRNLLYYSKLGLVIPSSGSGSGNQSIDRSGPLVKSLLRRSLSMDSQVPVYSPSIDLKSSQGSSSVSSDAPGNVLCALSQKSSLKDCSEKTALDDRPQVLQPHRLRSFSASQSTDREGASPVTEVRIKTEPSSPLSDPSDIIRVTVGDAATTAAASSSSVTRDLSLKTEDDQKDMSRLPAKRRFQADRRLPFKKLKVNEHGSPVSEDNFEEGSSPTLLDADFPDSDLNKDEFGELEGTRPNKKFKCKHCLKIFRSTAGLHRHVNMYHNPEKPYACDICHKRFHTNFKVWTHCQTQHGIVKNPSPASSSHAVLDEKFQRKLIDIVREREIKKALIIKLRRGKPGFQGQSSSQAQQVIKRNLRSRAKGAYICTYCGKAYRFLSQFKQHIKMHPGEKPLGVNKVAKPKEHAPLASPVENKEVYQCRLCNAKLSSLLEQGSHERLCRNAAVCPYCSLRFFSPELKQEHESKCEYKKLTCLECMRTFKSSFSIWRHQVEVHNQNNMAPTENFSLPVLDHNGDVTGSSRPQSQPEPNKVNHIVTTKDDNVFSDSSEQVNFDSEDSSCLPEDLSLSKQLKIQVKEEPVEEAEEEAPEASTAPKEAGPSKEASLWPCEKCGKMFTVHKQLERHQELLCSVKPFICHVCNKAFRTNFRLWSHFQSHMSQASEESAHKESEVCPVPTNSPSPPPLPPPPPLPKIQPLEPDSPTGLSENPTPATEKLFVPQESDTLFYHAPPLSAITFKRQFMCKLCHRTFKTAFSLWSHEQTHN
UniProt Q9UHD1: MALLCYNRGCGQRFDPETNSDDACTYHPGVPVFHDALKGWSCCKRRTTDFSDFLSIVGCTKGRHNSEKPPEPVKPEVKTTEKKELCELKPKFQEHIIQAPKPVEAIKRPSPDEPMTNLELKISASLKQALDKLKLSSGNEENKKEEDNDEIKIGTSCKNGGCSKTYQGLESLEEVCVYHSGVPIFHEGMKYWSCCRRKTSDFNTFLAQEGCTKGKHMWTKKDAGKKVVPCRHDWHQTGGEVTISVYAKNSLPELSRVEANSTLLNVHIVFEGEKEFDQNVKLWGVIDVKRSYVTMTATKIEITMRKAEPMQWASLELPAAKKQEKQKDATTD
UniProt Q9Y285: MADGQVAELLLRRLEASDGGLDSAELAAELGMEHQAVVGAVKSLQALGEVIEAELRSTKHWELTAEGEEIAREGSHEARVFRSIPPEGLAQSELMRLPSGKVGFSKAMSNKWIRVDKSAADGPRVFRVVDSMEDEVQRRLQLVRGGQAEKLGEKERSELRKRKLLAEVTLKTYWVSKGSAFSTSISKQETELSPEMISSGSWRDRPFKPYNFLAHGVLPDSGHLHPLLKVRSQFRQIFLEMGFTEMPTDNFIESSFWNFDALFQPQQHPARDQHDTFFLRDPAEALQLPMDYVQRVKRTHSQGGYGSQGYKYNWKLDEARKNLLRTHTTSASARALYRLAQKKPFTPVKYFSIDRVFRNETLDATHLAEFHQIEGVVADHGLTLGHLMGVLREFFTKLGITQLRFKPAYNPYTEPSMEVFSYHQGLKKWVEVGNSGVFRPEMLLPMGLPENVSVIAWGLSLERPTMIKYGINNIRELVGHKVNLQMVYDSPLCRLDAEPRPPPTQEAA
UniProt Q9UER7, whole entry: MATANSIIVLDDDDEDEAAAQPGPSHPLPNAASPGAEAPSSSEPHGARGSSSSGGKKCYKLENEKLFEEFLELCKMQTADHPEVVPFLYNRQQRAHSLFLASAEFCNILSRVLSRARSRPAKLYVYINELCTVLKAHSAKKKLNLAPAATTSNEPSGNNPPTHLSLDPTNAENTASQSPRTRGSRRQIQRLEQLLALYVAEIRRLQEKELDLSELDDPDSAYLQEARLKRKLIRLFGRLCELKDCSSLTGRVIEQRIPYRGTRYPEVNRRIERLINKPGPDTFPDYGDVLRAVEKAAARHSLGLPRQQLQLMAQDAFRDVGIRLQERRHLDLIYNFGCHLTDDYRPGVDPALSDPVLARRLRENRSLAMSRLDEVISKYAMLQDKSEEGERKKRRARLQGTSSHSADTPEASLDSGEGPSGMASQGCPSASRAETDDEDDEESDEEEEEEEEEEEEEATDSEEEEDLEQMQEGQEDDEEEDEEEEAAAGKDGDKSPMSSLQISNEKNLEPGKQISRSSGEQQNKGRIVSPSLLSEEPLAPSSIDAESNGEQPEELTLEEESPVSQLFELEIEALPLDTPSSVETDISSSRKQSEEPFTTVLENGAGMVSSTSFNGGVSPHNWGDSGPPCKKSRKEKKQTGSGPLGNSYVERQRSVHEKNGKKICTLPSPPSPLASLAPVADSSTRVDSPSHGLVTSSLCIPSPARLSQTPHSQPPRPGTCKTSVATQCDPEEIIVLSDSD
UniProt Q9UH03, whole entry: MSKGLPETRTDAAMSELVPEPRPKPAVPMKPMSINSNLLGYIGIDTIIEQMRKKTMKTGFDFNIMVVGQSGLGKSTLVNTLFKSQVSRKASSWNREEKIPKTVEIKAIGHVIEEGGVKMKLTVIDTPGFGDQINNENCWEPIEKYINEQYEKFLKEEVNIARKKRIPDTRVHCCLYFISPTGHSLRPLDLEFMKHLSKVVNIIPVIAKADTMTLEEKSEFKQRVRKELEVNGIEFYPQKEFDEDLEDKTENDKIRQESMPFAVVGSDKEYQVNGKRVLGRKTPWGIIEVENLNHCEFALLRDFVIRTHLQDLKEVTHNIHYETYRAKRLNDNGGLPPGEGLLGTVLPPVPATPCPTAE
UniProt Q9Y2H2: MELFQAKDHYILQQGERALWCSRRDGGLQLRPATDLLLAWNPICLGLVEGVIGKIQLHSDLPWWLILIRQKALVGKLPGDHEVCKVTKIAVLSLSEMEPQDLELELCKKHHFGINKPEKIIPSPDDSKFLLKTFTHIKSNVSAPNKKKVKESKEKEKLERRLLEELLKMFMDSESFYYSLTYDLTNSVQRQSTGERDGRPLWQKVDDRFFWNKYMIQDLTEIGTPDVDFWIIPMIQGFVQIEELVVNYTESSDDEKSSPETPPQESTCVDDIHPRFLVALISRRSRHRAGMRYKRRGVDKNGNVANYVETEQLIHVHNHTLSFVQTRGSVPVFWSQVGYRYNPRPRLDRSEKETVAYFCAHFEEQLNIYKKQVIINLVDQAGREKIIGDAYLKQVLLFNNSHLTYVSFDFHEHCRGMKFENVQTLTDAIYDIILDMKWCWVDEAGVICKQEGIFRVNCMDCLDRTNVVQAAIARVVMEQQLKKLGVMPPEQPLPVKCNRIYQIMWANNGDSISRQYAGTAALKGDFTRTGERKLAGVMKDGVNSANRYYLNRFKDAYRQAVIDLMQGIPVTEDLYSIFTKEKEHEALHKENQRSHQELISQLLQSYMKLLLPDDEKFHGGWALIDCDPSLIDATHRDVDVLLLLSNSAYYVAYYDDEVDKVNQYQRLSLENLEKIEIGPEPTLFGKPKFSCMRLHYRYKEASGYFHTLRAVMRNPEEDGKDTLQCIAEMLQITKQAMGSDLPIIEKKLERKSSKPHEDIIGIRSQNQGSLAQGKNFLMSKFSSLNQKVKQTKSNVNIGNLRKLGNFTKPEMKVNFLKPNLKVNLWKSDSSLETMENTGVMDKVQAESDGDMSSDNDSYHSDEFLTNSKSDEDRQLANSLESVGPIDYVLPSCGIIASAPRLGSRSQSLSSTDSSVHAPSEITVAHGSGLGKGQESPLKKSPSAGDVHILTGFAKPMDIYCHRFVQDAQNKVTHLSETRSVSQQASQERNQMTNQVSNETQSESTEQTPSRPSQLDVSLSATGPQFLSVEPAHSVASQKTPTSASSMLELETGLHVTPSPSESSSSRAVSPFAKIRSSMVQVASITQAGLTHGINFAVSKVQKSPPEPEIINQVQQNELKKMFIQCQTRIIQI
UniProt Q9Y248: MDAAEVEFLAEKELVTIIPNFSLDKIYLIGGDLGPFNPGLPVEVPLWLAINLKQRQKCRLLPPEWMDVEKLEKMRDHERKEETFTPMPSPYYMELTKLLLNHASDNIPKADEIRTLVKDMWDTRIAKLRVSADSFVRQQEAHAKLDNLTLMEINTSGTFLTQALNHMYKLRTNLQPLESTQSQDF
UniProt Q9UHB9: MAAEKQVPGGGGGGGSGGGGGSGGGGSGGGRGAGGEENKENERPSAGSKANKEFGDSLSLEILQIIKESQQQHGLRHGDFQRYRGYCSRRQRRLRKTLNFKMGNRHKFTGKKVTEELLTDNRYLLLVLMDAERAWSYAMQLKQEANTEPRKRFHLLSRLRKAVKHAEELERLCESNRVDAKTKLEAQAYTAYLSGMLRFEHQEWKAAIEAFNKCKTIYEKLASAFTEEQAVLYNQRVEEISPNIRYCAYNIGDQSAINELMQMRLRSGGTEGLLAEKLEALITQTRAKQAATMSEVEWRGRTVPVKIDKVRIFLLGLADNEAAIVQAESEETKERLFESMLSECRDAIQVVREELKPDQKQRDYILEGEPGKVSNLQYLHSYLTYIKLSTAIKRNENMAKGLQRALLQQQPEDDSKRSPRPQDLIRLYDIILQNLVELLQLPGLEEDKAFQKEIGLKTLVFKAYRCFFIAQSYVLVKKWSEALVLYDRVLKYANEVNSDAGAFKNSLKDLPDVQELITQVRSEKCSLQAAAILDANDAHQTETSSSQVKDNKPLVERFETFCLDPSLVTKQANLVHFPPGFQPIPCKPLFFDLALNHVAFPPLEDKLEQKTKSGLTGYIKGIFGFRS
UniProt Q9UQ49: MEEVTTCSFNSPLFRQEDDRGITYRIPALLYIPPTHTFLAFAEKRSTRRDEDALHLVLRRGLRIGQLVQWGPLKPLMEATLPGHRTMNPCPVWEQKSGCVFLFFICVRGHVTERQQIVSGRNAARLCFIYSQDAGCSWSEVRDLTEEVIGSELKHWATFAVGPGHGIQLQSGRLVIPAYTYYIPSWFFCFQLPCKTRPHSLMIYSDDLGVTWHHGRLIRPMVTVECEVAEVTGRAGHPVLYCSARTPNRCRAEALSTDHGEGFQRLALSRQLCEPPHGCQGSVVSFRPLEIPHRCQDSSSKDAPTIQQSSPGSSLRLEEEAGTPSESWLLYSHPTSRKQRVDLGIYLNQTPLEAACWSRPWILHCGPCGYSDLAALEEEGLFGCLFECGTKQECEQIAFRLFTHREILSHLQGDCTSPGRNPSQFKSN
UniProt Q9UKX7: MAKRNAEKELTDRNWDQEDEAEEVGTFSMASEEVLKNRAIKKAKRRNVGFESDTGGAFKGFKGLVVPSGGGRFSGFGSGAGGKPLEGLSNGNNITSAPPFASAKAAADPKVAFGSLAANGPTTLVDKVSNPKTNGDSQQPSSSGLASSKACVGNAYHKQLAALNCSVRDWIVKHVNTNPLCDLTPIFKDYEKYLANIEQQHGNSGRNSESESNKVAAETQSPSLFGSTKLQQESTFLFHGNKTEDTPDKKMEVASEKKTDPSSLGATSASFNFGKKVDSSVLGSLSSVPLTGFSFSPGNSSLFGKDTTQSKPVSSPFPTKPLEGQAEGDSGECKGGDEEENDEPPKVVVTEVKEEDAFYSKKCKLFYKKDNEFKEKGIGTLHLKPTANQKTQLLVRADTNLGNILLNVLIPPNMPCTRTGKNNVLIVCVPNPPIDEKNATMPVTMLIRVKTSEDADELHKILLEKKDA

Compound: Nc1ncnc2c1ncn2[C@@H]1O[C@H](COP(=O)(O)OP(=O)(O)NP(=O)(O)O)[C@@H](O)[C@H]1O [adenylyl imidodiphosphate]
Assay: NP40-soluble protein abundance relative to vehicle (solubility fold change) (ratio); higher = more soluble protein in presence of AMP-PNP
Method in brief: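 Crude Jurkat lysate, prepared by Dounce homogenisation, was exposed to eight concentrations from 0.1 to 10 mM for 10 min at room temperature and then 3 min at 37 °C. Solubilisation used 0.8% NP40 with benzonase for 60 min at 4 °C, followed by ultracentrifugation and TMT labelling of the supernatant for LC-MS/MS. After vsn normalisation of intensities, each value is the fold change against the detergent-processed vehicle within each replicate, across three independent experiments.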

Target	NP40-soluble protein abundance (concentration: 1mM)	NP40-soluble protein abundance (concentration: 2mM)	NP40-soluble protein abundance (concentration: 4mM)	NP40-soluble protein abundance (concentration: 6mM)	NP40-soluble protein abundance (concentration: 8mM)	NP40-soluble protein abundance (concentration: 10mM)
UniProt Q9UKL6 and related entries	0.986 ± 0.033	0.962 ± 0.03	0.977 ± 0.014	1.003 ± 0.0098	0.9804 ± 0.0094	1.01 ± 0.051
UniProt Q9Y2S0 and related entries	1.03 ± 0.024	1.06 ± 0.053	1.08 ± 0.062	1.02 ± 0.018	1.03 ± 0.041	1.07 ± 0.036
DBR1 (UniProt Q9UK59)	0.985 ± 0.04	0.939 ± 0.083	0.974 ± 0.051	0.9598 ± 0.0087	0.992 ± 0.029	0.957 ± 0.022
UniProt Q9UL63 and related entries	0.984 ± 0.065	0.968 ± 0.061	0.994 ± 0.041	0.937 ± 0.085	0.934 ± 0.092	0.922 ± 0.12
UniProt Q9UN36 and related entries	1.02 ± 0.015	1.04 ± 0.032	1.01 ± 0.06	0.986 ± 0.025	0.973 ± 0.069	0.979 ± 0.024
AMDHD2 (UniProt Q9Y303)	0.968 ± 0.016	0.923 ± 0.048	0.949 ± 0.024	0.954 ± 0.024	0.948 ± 0.02	0.922 ± 0.033
TPX2 (UniProt Q9ULW0)	1.09 ± 0.013	1.2 ± 0.077	1.23 ± 0.066	1.27 ± 0.049	1.32 ± 0.072	1.39 ± 0.049
UniProt Q9Y2A7 and related entries	0.972 ± 0.026	0.974 ± 0.034	0.9706 ± 0.0091	1 ± 0.019	0.976 ± 0.02	0.985 ± 0.026
SPG7 (UniProt Q9UQ90)	0.9564 ± 0.0073	0.912 ± 0.042	0.939 ± 0.029	0.966 ± 0.013	0.9696 ± 0.0085	0.9492 ± 0.0031
POMP (UniProt Q9Y244)	0.997 ± 0.06	1.02 ± 0.056	0.919 ± 0.045	0.947 ± 0.018	0.918 ± 0.011	0.902 ± 0.03
NRBP1 (UniProt Q9UHY1)	1.03 ± 0.021	1.02 ± 0.018	1.01 ± 0.02	1.01 ± 0.012	1 ± 0.025	1.02 ± 0.036
UniProt Q9ULJ3 and related entries	1.02 ± 0.029	1.01 ± 0.039	0.997 ± 0.023	0.964 ± 0.02	0.941 ± 0.033	0.954 ± 0.025
WBP11 (UniProt Q9Y2W2)	1.05 ± 0.019	1.15 ± 0.13	1.1 ± 0.032	1.15 ± 0.048	1.14 ± 0.024	1.23 ± 0.048
CHORDC1 (UniProt Q9UHD1)	0.996 ± 0.029	1.004 ± 0.0087	0.952 ± 0.036	0.957 ± 0.059	0.924 ± 0.045	0.924 ± 0.055
SEC63 (UniProt Q9UGP8)	0.9907 ± 0.0042	0.989 ± 0.029	0.999 ± 0.029	0.999 ± 0.033	1.01 ± 0.056	0.989 ± 0.047
UniProt Q9Y2D5 and related entries	1.14 ± 0.073	1.23 ± 0.14	1.22 ± 0.086	1.21 ± 0.13	1.25 ± 0.11	1.27 ± 0.12
UniProt Q9UDY8 and related entries	0.995 ± 0.021	0.964 ± 0.045	0.979 ± 0.022	0.908 ± 0.014	0.945 ± 0.016	0.911 ± 0.017
UniProt Q9UPT9 and related entries	0.953 ± 0.022	0.953 ± 0.035	0.96 ± 0.025	0.922 ± 0.027	0.936 ± 0.021	0.922 ± 0.02
UniProt Q9ULC4 and related entries	0.97 ± 0.029	0.929 ± 0.029	0.959 ± 0.027	1.01 ± 0.05	1.03 ± 0.018	0.983 ± 0.038
USP24 (UniProt Q9UPU5)	0.979 ± 0.014	0.941 ± 0.025	0.978 ± 0.019	0.948 ± 0.018	0.968 ± 0.024	0.929 ± 0.034

Target	NP40-soluble protein abundance (concentration: 1mM)	NP40-soluble protein abundance (concentration: 2mM)	NP40-soluble protein abundance (concentration: 4mM)	NP40-soluble protein abundance (concentration: 6mM)	NP40-soluble protein abundance (concentration: 8mM)	NP40-soluble protein abundance (concentration: 10mM)
UniProt Q9UNF0 and related entries	1.03 ± 0.02	1.07 ± 0.049	1.02 ± 0.053	1.032 ± 0.008	1.03 ± 0.029	1.04 ± 0.043
ENOPH1 (UniProt Q9UHY7)	1.04 ± 0.02	1.08 ± 0.081	1.04 ± 0.052	1.02 ± 0.039	1.05 ± 0.031	1.06 ± 0.067
FARSA (UniProt Q9Y285)	0.999 ± 0.034	0.963 ± 0.011	1.07 ± 0.071	1.09 ± 0.14	1.12 ± 0.15	1.13 ± 0.12
BCS1L (UniProt Q9Y276)	0.966 ± 0.021	0.874 ± 0.11	0.996 ± 0.024	0.955 ± 0.035	0.982 ± 0.024	0.937 ± 0.035
UniProt Q9UHA4	1.04 ± 0.022	1.01 ± 0.03	1 ± 0.016	0.96 ± 0.014	1.02 ± 0.015	0.999 ± 0.029
UniProt Q9UKX3	0.9785 ± 0.0069	0.965 ± 0.017	0.979 ± 0.035	0.968 ± 0.1	0.946 ± 0.068	0.9784 ± 0.0034
UniProt Q9UJD0	1 ± 0.015	1.01 ± 0.027	0.994 ± 0.035	1 ± 0.011	1.01 ± 0.023	1.01 ± 0.045
UniProt Q9UJX6 and related entries	0.953 ± 0.034	0.914 ± 0.028	0.94 ± 0.038	0.956 ± 0.028	0.9697 ± 0.0046	0.944 ± 0.017
UniProt Q9UPQ9-1|Q9UPQ9 and related entries	1.02 ± 0.036	1.07 ± 0.035	1.04 ± 0.024	1.02 ± 0.032	0.984 ± 0.024	1.03 ± 0.025
UniProt Q9ULR0 and related entries	1.011 ± 0.0053	1.07 ± 0.05	1.02 ± 0.024	1 ± 0.034	1.01 ± 0.044	1 ± 0.037
LSM7 (UniProt Q9UK45)	1.03 ± 0.041	1.11 ± 0.088	1.02 ± 0.042	1.1 ± 0.072	1.11 ± 0.059	1.11 ± 0.036
SCML2 (UniProt Q9UQR0)	1.08 ± 0.049	1.09 ± 0.058	1.17 ± 0.075	1.18 ± 0.069	1.19 ± 0.087	1.27 ± 0.11
AP4E1 (UniProt Q9UPM8)	1.03 ± 0.051	1.012 ± 0.0085	1.04 ± 0.027	1.02 ± 0.034	1.01 ± 0.024	1.06 ± 0.034
UniProt Q9UEW8 and related entries	1.03 ± 0.066	1.05 ± 0.035	0.999 ± 0.033	1.04 ± 0.057	0.992 ± 0.06	1.03 ± 0.046
UBQLN2 (UniProt Q9UHD9)	0.966 ± 0.033	0.988 ± 0.019	0.964 ± 0.022	0.9609 ± 0.0091	0.931 ± 0.048	0.952 ± 0.016
VPS51 (UniProt Q9UID3)	1.017 ± 0.0044	1.01 ± 0.037	1.01 ± 0.037	0.999 ± 0.029	0.975 ± 0.049	1.01 ± 0.024
UniProt Q9Y2H6 and related entries	0.9978 ± 0.0022	1.04 ± 0.014	1.007 ± 0.01	0.988 ± 0.014	0.9858 ± 0.0089	1 ± 0.019
UniProt Q9Y2Z2 and related entries	0.958 ± 0.026	0.941 ± 0.0087	0.937 ± 0.026	0.961 ± 0.011	0.959 ± 0.0056	0.951 ± 0.016
UniProt Q9UJ83 and related entries	0.961 ± 0.018	0.908 ± 0.09	0.946 ± 0.017	0.927 ± 0.029	0.941 ± 0.031	0.918 ± 0.0021
TMED5 (UniProt Q9Y3A6)	0.995 ± 0.025	0.95 ± 0.032	0.944 ± 0.026	0.955 ± 0.035	0.949 ± 0.031	0.929 ± 0.015

Looked up one by one from the entries so far (three):
Target	NP40-soluble protein abundance (concentration: 1mM)	NP40-soluble protein abundance (concentration: 2mM)	NP40-soluble protein abundance (concentration: 4mM)	NP40-soluble protein abundance (concentration: 6mM)	NP40-soluble protein abundance (concentration: 8mM)	NP40-soluble protein abundance (concentration: 10mM)
TMED5 (UniProt Q9Y3A6)	0.995 ± 0.025	0.95 ± 0.032	0.944 ± 0.026	0.955 ± 0.035	0.949 ± 0.031	0.929 ± 0.015
SEC63 (UniProt Q9UGP8)	0.9907 ± 0.0042	0.989 ± 0.029	0.999 ± 0.029	0.999 ± 0.033	1.01 ± 0.056	0.989 ± 0.047
LSM7 (UniProt Q9UK45)	1.03 ± 0.041	1.11 ± 0.088	1.02 ± 0.042	1.1 ± 0.072	1.11 ± 0.059	1.11 ± 0.036

The list continues:

Target	NP40-soluble protein abundance (concentration: 1mM)	NP40-soluble protein abundance (concentration: 2mM)	NP40-soluble protein abundance (concentration: 4mM)	NP40-soluble protein abundance (concentration: 6mM)	NP40-soluble protein abundance (concentration: 8mM)	NP40-soluble protein abundance (concentration: 10mM)
MRPS16 (UniProt Q9Y3D3)	0.975 ± 0.015	0.953 ± 0.051	0.939 ± 0.11	1 ± 0.038	1.02 ± 0.049	0.967 ± 0.093
NAGK (UniProt Q9UJ70)	0.96 ± 0.047	0.908 ± 0.082	0.973 ± 0.048	1.04 ± 0.073	1.04 ± 0.07	0.987 ± 0.014
UniProt Q9Y3C4 and related entries	1 ± 0.012	0.964 ± 0.026	0.971 ± 0.012	0.976 ± 0.064	0.971 ± 0.031	0.977 ± 0.02
UniProt Q9UER7 and related entries	1.05 ± 0.04	1.06 ± 0.031	1.03 ± 0.012	1 ± 0.037	1 ± 0.026	1.01 ± 0.017
UniProt Q9UH03 and related entries	1.01 ± 0.036	0.992 ± 0.029	0.987 ± 0.027	0.981 ± 0.012	0.981 ± 0.023	0.99 ± 0.023
INPP5F (UniProt Q9Y2H2)	0.998 ± 0.03	1.03 ± 0.034	0.986 ± 0.022	0.992 ± 0.018	0.975 ± 0.043	0.994 ± 0.037
UniProt Q9UL12 and related entries	0.97 ± 0.022	0.958 ± 0.046	0.978 ± 0.017	0.957 ± 0.012	0.975 ± 0.014	0.96 ± 0.011
GINS2 (UniProt Q9Y248)	0.9801 ± 0.008	0.992 ± 0.021	1.01 ± 0.023	0.988 ± 0.041	0.972 ± 0.037	0.969 ± 0.034
UniProt Q9UHB4 and related entries	1 ± 0.043	0.967 ± 0.025	0.964 ± 0.025	0.989 ± 0.027	1 ± 0.03	0.97 ± 0.023
ZHX1 (UniProt Q9UKY1)	1.03 ± 0.046	1.06 ± 0.061	1.01 ± 0.039	1.01 ± 0.033	1.05 ± 0.056	1.06 ± 0.081
UniProt Q9UP95 and related entries	0.99 ± 0.015	1.01 ± 0.04	0.988 ± 0.041	0.966 ± 0.063	0.966 ± 0.024	0.965 ± 0.031
UniProt Q9UHB9 and related entries	1.02 ± 0.015	1.03 ± 0.012	0.996 ± 0.1	1.06 ± 0.076	1.09 ± 0.032	1.1 ± 0.015
UniProt Q9UHL0 and related entries	1.02 ± 0.071	0.933 ± 0.068	1.23 ± 0.1	1.16 ± 0.077	1.03 ± 0.097	0.982 ± 0.073
UniProt Q9UQ49 and related entries	1.01 ± 0.022	1.02 ± 0.021	1.02 ± 0.026	1.02 ± 0.031	1.01 ± 0.024	1.01 ± 0.017
COPS3 (UniProt Q9UNS2)	0.996 ± 0.016	1.02 ± 0.071	0.999 ± 0.044	1.04 ± 0.051	1.02 ± 0.053	1.03 ± 0.088
UniProt Q9UNA1 and related entries	0.985 ± 0.031	0.983 ± 0.021	1.01 ± 0.045	1.01 ± 0.015	0.992 ± 0.02	1 ± 0.03
MRPS2 (UniProt Q9Y399)	0.973 ± 0.061	0.945 ± 0.071	0.947 ± 0.1	1.01 ± 0.089	1 ± 0.072	0.987 ± 0.14
USP20 (UniProt Q9Y2K6)	1.01 ± 0.017	1.04 ± 0.036	1.03 ± 0.029	1.02 ± 0.02	1.015 ± 0.0077	1.01 ± 0.023
UniProt Q9Y2V7 and related entries	0.959 ± 0.01	0.941 ± 0.02	0.948 ± 0.052	0.953 ± 0.033	0.934 ± 0.05	0.933 ± 0.047
UniProt Q9UKX7 and related entries	1.08 ± 0.018	1.13 ± 0.053	1.12 ± 0.039	1.14 ± 0.084	1.14 ± 0.062	1.17 ± 0.081
